# Results reported in paper doi:10.1101/679977v1 (bioRxiv, 2019).
# Square brackets hold non-standard residues; d marks the D form. Peptide text beside a SMILES is read from it.
# Experiment: CD spectroscopy
# Type: physicochemical
# Details: 30 mM SDS, 150 μM peptide, 25°C, average of three scans
row,SMILES,[θ]220 (mean residue ellipticity)
1,CC[C@H](C)[C@H](NC(=O)CNC(=O)[C@H]1CCCN1C(=O)[C@H](CCCCN)NC(=O)[C@H](Cc1c[nH]c2ccccc12)NC(=O)[C@@H](NC(=O)[C@@H](N)CCCCN)[C@@H](C)CC)C(=O)N[C@@H](CCCCN)C(=O)N[C@@H](CCCCN)C(=O)N[C@@H](Cc1c[nH]c2ccccc12)C(=O)O [Peptide 1] (H-KIWK[dP]GIKKW-OH; N-terminus and C-terminus assumed),−728 deg×cm^2×dmol^-1
2,CC[C@H](C)[C@H](NC(=O)CNC(=O)[C@H]1CCCN1C(=O)[C@H](CCCCN)NC(=O)[C@H](Cc1c[nH]c2ccccc12)NC(=O)[C@@H](NC(=O)[C@H](CCCCN)NC(=O)[C@H](CCCCN)NC(=O)[C@@H](N)Cc1c[nH]c2ccccc12)[C@@H](C)CC)C(=O)N[C@@H](CCCCN)C(=O)N[C@@H](CCCCN)C(=O)N[C@@H](Cc1c[nH]c2ccccc12)C(=O)N[C@H](C(=O)N[C@@H](CCCCN)C(=O)O)[C@@H](C)CC [Peptide 2] (H-WKKIWK[dP]GIKKWIK-OH; N-terminus and C-terminus assumed),−839 deg×cm^2×dmol^-1
3,CC[C@H](C)[C@H](NC(=O)CNC(=O)[C@H]1CCCN1C(=O)[C@H](CCCCN)NC(=O)[C@H](Cc1c[nH]c2ccccc12)NC(=O)[C@@H](NC(=O)[C@H](CCCCN)NC(=O)[C@H](CCCCN)NC(=O)[C@H](Cc1c[nH]c2ccccc12)NC(=O)[C@@H](NC(=O)[C@@H](N)CCCCN)[C@@H](C)CC)[C@@H](C)CC)C(=O)N[C@@H](CCCCN)C(=O)N[C@@H](CCCCN)C(=O)N[C@@H](Cc1c[nH]c2ccccc12)C(=O)N[C@H](C(=O)N[C@@H](CCCCN)C(=O)N[C@@H](CCCCN)C(=O)N[C@@H](Cc1c[nH]c2ccccc12)C(=O)O)[C@@H](C)CC [Peptide 3] (H-KIWKKIWK[dP]GIKKWIKKW-OH; N-terminus and C-terminus assumed),−1668 deg×cm^2×dmol^-1
4,CC[C@H](C)[C@H](NC(=O)CNC(=O)[C@H]1CCCN1C(=O)[C@H](CCCCN)NC(=O)[C@H](Cc1c[nH]c2ccccc12)NC(=O)[C@@H](NC(=O)[C@H](CCCCN)NC(=O)[C@H](CCCCN)NC(=O)[C@H](Cc1c[nH]c2ccccc12)NC(=O)[C@@H](NC(=O)[C@H](CCCCN)NC(=O)[C@H](CCCCN)NC(=O)[C@@H](N)Cc1c[nH]c2ccccc12)[C@@H](C)CC)[C@@H](C)CC)C(=O)N[C@@H](CCCCN)C(=O)N[C@@H](CCCCN)C(=O)N[C@@H](Cc1c[nH]c2ccccc12)C(=O)N[C@H](C(=O)N[C@@H](CCCCN)C(=O)N[C@@H](CCCCN)C(=O)N[C@@H](Cc1c[nH]c2ccccc12)C(=O)N[C@H](C(=O)N[C@@H](CCCCN)C(=O)O)[C@@H](C)CC)[C@@H](C)CC [Peptide 4] (H-WKKIWKKIWK[dP]GIKKWIKKWIK-OH; N-terminus and C-terminus assumed),−6924 deg×cm^2×dmol^-1
